Laboratory results: article PMC5758537
No constants are given. Whether binding was seen depends on the method and setting. In cells and extracts the contact can be indirect. Some binding calls cover weakened binding; strength is not graded here.

Target: T1, dopamine D2 receptor (mouse, endogenous) (mouse (endogenous in mouse striatum)), P61168
T1 chain: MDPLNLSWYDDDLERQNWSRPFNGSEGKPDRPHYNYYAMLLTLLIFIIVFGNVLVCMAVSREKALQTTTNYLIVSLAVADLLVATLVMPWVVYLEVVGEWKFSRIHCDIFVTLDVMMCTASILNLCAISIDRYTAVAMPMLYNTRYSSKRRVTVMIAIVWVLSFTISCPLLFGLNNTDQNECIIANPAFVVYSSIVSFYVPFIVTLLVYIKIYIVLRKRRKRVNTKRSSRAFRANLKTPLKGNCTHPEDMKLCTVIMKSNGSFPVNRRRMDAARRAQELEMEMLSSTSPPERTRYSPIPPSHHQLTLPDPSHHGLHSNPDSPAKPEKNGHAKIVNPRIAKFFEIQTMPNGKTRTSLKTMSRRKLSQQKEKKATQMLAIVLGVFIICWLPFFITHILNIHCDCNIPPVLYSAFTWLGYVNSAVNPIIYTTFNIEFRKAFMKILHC
Assay: proximity ligation; in situ PLA on coronal brain slices (rat 25 um, monkey 30 um; mouse striatum); anti-D1R and anti-D2R antibodies directly conjugated to PLUS and MINUS oligonucleotides, 60 ug/ml; two sets of antibodies; confocal microscopy
Details: remark: other sources report otherwise

B1: dopamine D1 receptor (mouse, endogenous), Q61616 1-446 (receptor)
chain: MAPNTSTMDETGLPVERDFSFRILTACFLSLLILSTLLGNTLVCAAVIRFRHLRSKVTNFFVISLAVSDLLVAVLVMPWKAVAEIAGFWPFGSFCNIWVAFDIMCSTASILNLCVISVDRYWAISSPFQYERKMTPKAAFILISVAWTLSVLISFIPVQLSWHKAKPTWPLDGNFTSLEDAEDDNCDTRLSRTYAISSSLISFYIPVAIMIVTYTSIYRIAQKQIRRISALERAAVHAKNCQTTTGNGNPVECSQSESSFKMSFKRETKVLKTLSVIMGVFVCCWLPFFISNCMVPFCGSEETQPFCIDSITFDVFVWFGWANSSLNPIIYAFNADFQKAFSTLLGCYRLCPTTNNAIETVSINNNGAVMFSSHHEPRGSISKDCNLVYLIPHAVGSSEDLKREEAGGIPKPLEKLSPALSVILDYDTDVSLEKIQPVTHSGQHST
In the case of B1, the binding is reported as “binds”.
